From PMC4749184
No constants are given. Whether binding was seen depends on the method and setting. Binding can be weak; no strength is given.

Amino acid sequences for entries named in this document (tags omitted). A change or cut given only in a name is not applied to a line headed by its entry. Residues count along the entry.
UniProt P15962, residues 1-296: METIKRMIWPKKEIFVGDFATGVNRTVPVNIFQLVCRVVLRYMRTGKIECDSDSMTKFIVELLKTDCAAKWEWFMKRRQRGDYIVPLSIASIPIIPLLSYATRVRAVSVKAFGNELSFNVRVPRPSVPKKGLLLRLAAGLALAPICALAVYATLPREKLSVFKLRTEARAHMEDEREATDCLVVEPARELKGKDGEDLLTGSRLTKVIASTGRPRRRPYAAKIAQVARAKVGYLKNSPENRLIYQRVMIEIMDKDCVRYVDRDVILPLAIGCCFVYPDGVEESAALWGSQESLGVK
UniProt Q03048: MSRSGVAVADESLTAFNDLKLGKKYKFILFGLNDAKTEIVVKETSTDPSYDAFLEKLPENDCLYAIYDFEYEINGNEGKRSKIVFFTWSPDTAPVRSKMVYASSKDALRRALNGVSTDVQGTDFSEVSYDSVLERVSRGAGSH

What follows are substances tested against TBSV p33 replication protein (bait of the split-ubiquitin assay) (Tomato bushy stunt virus) (UniProt P15962) (assay: two-hybrid; split-ubiquitin assay in yeast; p33 as bait co-expressed with NubG prey proteins; SSA1 and the empty prey vector (NubG-X) as positive and negative controls).

Row | Substance | binding
1 | Cof1p mutant cof1-20, split-ubiquitin prey (from UniProt Q03048) | binds
2 | Cof1p mutant cof1-5 ts, split-ubiquitin prey (from UniProt Q03048) | binds
3 | Cof1p mutant cof1-8 ts, split-ubiquitin prey (from UniProt Q03048) | binds
